The assay deals with 6xHis-RARΔAB. The experiment in a line: cross-linking; purified proteins (7 μM each) with 1.8 mM DSS, 2 h, room temperature; shifted bands in 10% SDS/PAGE digested with trypsin, LC-MS/MS (LTQ Orbitrap Velos); both purified.

These are yes or no findings as the source states them, for the method shown. A result given as binding can be weak or reduced; the word gives no strength. Where a sequence is shown, tags or fusion partners need not be part of it.

This passage reports binding results from article PMC5757173.

B1: Fasciculation and elongation zeta-1 (1-392) protein fused to an N-terminal 6xHis-tag (protein, UniProt Q99689 1-392)
chain: MEAPLVSLDEEFEDLRPSCSEDPEEKPQCFYGSSPHHLEDPSLSELENFSSEIISFKSMEDLVNEFDEKLNVCFRNYNAKTENLAPVKNQLQIQEEEETLQDEEVWDALTDNYIPSLSEDWRDPNIEALNGNCSDTEIHEKEEEEFNEKSENDSGINEEPLLTADQVIEEIEEMMQNSPDPEEEEEVLEEEDGGETSSQADSVLLQEMQALTQTFNNNWSYEGLRHMSGSELTELLDQVEGAIRDFSEELVQQLARRDELEFEKEVKNSFITVLIEVQNKQKEQRELMKKRRKEKGLSLQSSRIEKGNQMPLKRFSMEGISNILQSGIRQTFGSSGTDKQYLNTVIPYEKKASPPSVEDLQMLTNILFAMKEDNEKVPTLLTDYILKVLCPT
As to B1, the binding entry is given as “binds”.
